# Experimental data taken from PubChem BioAssay AID652280 (Broad Institute, 2013).
# The inconclusive results got no clear call from the source; some entries with a clear call stand among them for comparison. The source made the active and inactive calls. The rule behind the calls is not given here.
# Assay: NIH/3T3 fibroblast cytotoxicity, dose response, cytotoxicity control, cell-based, plate reader, dry powder, set 2 (AID 652280)
# Conditions: NIH/3T3 mouse fibroblast toxicity; at 16 µM (top of the series) unless noted
row,Structure (SMILES),"activity change, negative = toxicity"
1,C[C@@H]1CN([C@H](C)CO)C(=O)c2cccc(NC(=O)c3ccncc3)c2O[C@H]1CN(C)Cc1ccc(Oc2ccccc2)cc1,inconclusive: -39.5%
2,CC(C)N1C[C@@H](CN(C)Cc2ccc(Cl)cc2)Oc2c(NC(=O)c3ccncc3)cc(F)cc2C1=O,inconclusive: -11.4%
3,O=C(C1CCCC1)N1CCCCN2[C@@H](CO)[C@H](c3ccc(-c4cccc(F)c4)cc3)[C@@H]2C1,inconclusive: -24.1%
4,CC(C)N1CC2(CN(Cc3ccccc3)C2)Oc2c(NC(=O)c3ccncc3)cccc2C1=O,inactive: -2.24%
5,CC(C)N1CC2(CN(Cc3ccccc3Cl)C2)Oc2c(NC(=O)c3ccncc3)cccc2C1=O,inactive: -16.5%
6,CC(C)N1CC[C@H](CNCc2ccc(Oc3ccccc3)cc2)Oc2c(NC(=O)c3ccncc3)cccc2C1=O,inconclusive: -48.2%
7,C[C@H]1CN([C@@H](C)CO)C(=O)c2cccc(NC(=O)c3ccncc3)c2O[C@@H]1CN(C)Cc1ccc(F)cc1Cl,inactive: -10.1%
8,CC(C)N1C[C@@H](CNCc2ccc(Oc3ccccc3)cc2)Oc2c(NC(=O)c3ccncc3)cccc2C1=O,inactive: -29.5%
9,C[C@H]1CN([C@@H](C)CO)C(=O)c2cccc(NC(=O)c3ccncc3)c2O[C@@H]1CN(C)Cc1cccc(Cl)c1Cl,inconclusive: -33.7%
10,Cc1ccc(CN(C)C[C@H]2Oc3c(NC(=O)c4ccncc4)cccc3C(=O)N([C@@H](C)CO)C[C@@H]2C)cc1,inactive: -16.5%
11,CC(C)N1CC2(CN(Cc3cccc(F)c3)C2)Oc2c(NC(=O)c3ccncc3)cccc2C1=O,inconclusive: -14.4%
12,CC(C)N1CC[C@@H](CNCc2ccc(Oc3ccccc3)cc2)Oc2c(NC(=O)c3ccncc3)cccc2C1=O,inconclusive: -27.6%
13,OC[C@H]1[C@H](c2ccc(-c3ccccc3)cc2)[C@@H]2CN(Cc3cncnc3)CCCCN12,inconclusive: -22.4%
14,C[C@H]1CN([C@@H](C)CO)C(=O)c2cccc(NC(=O)c3ccncc3)c2O[C@H]1CN(C)Cc1ccc(Oc2ccccc2)cc1,inconclusive: -43%
15,COc1cccc(-c2ccc([C@H]3[C@H](CO)N4CCCCN(CC5CCOCC5)C[C@@H]34)cc2)c1,inconclusive: -26.3%
16,O=C(c1ccc(F)cc1)N1CCCCN2[C@@H](CO)[C@H](c3ccc(-c4ccccc4)cc3)[C@@H]2C1,inconclusive: -30%
17,O=C(c1ccncc1)N1CCCCN2[C@@H](CO)[C@H](c3ccc(-c4ccccc4)cc3)[C@@H]2C1,inconclusive: -10.2%
18,C[C@H]1CN([C@@H](C)CO)C(=O)c2cccc(NC(=O)c3ccncc3)c2O[C@@H]1CN(C)Cc1ccc(F)c(Cl)c1,inactive: -32.5%
19,CC(C)N1C[C@H](C)[C@@H](CN(C)Cc2ccc(Cl)c(Cl)c2)Oc2c(cccc2-c2nnc(-c3ccncc3)o2)C1=O,inconclusive: -50.6%
20,O=C(CN1CCOCC1)N1CCCCN2[C@@H](CO)[C@H](c3ccc(-c4ccccc4F)cc3)[C@@H]2C1,inconclusive: -6.13%
21,C[C@@H]1CN([C@@H](C)CO)C(=O)c2cccc(NC(=O)c3ccncc3)c2O[C@H]1CN(C)Cc1ccc(Cl)cc1,inconclusive: -14.3%
22,C[C@@H]1CN([C@@H](C)CO)C(=O)c2cc(-c3cncnc3)cnc2O[C@H]1CN(C)Cc1ccc(Oc2ccccc2)cc1,inactive: -26.5%
23,CCCn1ncc(CN2CCCC(C(=O)c3cccc(OC(C)C)c3)C2)c1C (configuration not stated),inconclusive: -22.8%
24,CC(C)N1C[C@H](C)[C@@H](CN(C)Cc2ccc(Oc3ccccc3)cc2)Oc2c(C(=O)Nc3ccncc3)cccc2C1=O,inconclusive: -94.1%
25,CC(C)N1C[C@@H](CN(C)Cc2ccc(Cl)c(Cl)c2)Oc2c(NC(=O)c3ccncc3)cccc2C1=O,inconclusive: -38.3%
26,CC(C)N1C[C@@H](CN(C)CCc2ccc(Cl)c(Cl)c2)Oc2c(NC(=O)c3ccncc3)cccc2C1=O,inconclusive: -31.8%
27,C[C@@H]1CN(C)C(=O)c2cccc(NC(=O)c3ccncc3)c2O[C@H]1CN(C)Cc1ccc(Oc2ccccc2)cc1,inconclusive: -26.4%

# Exported with tabs: 2 of the compounds above.
row	Structure (SMILES)	activity change, negative = toxicity
16	O=C(c1ccc(F)cc1)N1CCCCN2[C@@H](CO)[C@H](c3ccc(-c4ccccc4)cc3)[C@@H]2C1	inconclusive: -30%
17	O=C(c1ccncc1)N1CCCCN2[C@@H](CO)[C@H](c3ccc(-c4ccccc4)cc3)[C@@H]2C1	inconclusive: -10.2%
